Experimental data from patent US8507235B2, “Isoprene production using the DXP and MVA pathway” (Danisco US Inc., priority 2009, dated 2013).

Test system: E. coli strain MCM597
Experiment: Carbon sources affecting isoprene production during growth on glucose (Biolog PM1 and PM2A plates)
Type: cell-based
Conditions: 0.5% glucose, 0.2% yeast extract; normalized to control only fed glucose; p<0.1

NCCC[C@H](N)C(=O)O [L-ornithine]
specific productivity of isoprene: increasing
